Assay results reported in the supplement of paper PMC10849652.
Some of the results follow.

Protein sequences, listed by entry. Tags and fused reporters are not part of them. Lines headed by an entry give the natural chain unless they say otherwise; changes in a name come on top.
UniProt Q96G04: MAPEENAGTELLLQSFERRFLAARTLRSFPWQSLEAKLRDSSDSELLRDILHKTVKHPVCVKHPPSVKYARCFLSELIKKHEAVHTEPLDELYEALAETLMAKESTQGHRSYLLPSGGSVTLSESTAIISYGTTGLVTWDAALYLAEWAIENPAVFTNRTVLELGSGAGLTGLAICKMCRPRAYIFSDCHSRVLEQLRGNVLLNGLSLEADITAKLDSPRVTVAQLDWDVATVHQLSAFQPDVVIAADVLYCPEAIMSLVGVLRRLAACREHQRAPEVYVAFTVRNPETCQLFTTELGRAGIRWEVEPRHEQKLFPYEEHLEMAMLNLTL
UniProt Q96G46: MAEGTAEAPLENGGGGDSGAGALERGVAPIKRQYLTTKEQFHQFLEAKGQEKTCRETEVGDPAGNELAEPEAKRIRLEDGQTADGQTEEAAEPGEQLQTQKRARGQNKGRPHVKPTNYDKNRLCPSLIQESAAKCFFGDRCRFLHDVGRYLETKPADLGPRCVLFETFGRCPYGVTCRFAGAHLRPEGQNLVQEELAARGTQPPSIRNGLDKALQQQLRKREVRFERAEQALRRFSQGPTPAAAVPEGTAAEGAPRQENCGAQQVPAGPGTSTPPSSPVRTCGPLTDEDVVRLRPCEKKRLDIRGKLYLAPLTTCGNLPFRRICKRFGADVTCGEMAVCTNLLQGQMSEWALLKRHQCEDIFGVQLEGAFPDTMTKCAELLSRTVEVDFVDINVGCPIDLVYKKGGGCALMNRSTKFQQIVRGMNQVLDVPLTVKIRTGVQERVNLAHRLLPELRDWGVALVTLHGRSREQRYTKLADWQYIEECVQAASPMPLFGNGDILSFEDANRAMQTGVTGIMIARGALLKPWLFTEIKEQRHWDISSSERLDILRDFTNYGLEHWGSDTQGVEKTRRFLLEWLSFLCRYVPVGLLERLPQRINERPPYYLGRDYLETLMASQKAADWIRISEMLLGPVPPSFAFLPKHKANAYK
UniProt Q9H223: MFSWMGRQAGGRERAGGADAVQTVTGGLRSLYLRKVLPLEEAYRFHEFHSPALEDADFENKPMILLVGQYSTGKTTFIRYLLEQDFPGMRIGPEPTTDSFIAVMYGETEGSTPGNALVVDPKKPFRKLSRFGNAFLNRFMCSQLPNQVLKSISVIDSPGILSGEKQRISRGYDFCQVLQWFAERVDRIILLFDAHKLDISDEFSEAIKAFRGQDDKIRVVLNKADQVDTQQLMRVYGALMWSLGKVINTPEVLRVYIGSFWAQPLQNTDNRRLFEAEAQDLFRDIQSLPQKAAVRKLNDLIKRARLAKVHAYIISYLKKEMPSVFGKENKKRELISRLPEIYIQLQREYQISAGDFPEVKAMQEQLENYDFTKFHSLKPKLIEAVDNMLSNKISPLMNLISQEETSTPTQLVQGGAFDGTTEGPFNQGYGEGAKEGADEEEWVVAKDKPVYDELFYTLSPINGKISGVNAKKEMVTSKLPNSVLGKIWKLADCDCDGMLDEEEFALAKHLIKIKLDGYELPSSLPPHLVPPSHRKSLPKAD
UniProt Q9H8V3: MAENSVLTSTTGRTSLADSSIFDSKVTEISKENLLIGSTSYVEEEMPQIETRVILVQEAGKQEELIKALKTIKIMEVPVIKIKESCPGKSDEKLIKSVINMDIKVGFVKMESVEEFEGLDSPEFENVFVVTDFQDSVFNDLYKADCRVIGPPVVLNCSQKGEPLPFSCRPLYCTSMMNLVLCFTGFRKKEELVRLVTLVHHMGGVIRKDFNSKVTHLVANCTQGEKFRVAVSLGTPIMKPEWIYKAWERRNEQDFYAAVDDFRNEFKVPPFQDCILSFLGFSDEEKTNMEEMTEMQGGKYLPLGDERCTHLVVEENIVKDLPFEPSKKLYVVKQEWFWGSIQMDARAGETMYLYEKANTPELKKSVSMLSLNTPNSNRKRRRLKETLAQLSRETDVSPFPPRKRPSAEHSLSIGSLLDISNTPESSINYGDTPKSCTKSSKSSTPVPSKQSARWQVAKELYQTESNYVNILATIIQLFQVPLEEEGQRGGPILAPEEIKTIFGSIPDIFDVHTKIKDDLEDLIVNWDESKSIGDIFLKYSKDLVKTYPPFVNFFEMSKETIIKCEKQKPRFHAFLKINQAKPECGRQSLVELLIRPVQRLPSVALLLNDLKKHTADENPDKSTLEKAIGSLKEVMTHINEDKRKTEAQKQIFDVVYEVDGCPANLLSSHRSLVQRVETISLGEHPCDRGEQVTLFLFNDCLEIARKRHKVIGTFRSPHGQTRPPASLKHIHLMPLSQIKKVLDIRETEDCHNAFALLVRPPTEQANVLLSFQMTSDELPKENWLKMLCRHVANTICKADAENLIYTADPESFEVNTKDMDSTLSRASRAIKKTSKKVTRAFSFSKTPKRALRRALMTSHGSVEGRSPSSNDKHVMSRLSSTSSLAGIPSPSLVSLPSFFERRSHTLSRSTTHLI
UniProt O60739, whole entry, looked up: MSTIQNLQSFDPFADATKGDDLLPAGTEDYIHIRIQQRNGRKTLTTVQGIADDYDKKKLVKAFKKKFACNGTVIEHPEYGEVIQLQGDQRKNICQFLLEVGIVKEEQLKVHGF
UniProt O60869: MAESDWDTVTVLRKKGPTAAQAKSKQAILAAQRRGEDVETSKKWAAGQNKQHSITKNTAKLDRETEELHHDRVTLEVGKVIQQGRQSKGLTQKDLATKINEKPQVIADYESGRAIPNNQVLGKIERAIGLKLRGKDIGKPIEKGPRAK
UniProt Q9H2P9: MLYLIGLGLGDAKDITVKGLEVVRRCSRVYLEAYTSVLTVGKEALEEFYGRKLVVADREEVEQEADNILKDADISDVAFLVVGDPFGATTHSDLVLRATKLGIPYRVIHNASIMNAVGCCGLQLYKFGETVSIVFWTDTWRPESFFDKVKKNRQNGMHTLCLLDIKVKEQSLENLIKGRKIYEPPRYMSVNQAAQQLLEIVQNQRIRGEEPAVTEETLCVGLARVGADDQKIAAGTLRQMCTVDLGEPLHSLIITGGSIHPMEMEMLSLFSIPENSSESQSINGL
UniProt Q13409, whole entry, looked up: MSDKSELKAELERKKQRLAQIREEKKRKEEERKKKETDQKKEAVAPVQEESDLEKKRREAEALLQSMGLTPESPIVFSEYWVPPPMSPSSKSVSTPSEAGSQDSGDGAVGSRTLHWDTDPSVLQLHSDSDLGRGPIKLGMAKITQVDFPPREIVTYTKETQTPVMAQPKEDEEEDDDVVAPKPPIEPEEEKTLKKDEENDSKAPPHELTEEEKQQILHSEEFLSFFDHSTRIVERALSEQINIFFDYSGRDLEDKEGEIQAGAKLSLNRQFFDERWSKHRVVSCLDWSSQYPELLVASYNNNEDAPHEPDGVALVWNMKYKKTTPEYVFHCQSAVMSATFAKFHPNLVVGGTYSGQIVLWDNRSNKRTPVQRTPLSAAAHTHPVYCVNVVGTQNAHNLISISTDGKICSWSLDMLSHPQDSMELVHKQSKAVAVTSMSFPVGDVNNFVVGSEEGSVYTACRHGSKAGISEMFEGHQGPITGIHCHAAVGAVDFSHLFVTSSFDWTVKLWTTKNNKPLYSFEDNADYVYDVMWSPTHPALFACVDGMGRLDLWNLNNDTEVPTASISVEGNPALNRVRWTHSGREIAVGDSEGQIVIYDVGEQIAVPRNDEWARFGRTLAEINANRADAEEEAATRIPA
UniProt Q14919: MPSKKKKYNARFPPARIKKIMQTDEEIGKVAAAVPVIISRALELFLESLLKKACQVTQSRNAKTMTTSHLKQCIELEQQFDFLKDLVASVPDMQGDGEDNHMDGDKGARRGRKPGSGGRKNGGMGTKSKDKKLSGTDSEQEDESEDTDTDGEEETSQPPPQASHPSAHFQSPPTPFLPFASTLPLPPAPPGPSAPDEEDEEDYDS
UniProt Q15125: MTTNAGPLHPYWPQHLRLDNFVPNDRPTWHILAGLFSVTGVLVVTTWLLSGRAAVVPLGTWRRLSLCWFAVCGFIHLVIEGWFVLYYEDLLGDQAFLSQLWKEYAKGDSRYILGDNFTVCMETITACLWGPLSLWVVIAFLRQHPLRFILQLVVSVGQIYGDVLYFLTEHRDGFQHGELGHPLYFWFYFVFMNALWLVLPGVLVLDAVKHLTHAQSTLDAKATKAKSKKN
UniProt Q8N9N8: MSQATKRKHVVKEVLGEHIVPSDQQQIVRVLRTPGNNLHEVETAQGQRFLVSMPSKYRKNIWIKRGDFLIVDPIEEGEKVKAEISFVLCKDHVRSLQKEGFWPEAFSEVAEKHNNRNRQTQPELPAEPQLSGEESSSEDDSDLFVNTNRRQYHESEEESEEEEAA
UniProt P57772: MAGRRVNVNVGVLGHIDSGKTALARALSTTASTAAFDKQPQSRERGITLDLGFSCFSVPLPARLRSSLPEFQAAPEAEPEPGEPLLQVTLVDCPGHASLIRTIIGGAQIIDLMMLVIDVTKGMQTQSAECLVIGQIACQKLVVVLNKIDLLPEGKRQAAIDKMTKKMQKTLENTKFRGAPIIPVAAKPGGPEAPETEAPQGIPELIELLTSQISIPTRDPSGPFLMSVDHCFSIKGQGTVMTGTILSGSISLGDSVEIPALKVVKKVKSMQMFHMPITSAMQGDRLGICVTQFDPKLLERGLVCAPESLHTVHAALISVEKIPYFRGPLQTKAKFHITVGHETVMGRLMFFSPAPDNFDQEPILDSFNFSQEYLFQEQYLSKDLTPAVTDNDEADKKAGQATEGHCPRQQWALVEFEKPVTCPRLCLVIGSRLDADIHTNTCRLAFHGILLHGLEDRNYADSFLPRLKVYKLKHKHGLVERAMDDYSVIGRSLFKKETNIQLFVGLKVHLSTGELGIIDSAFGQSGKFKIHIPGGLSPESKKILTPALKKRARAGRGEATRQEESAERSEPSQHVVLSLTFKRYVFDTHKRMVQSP
UniProt Q8N3D4: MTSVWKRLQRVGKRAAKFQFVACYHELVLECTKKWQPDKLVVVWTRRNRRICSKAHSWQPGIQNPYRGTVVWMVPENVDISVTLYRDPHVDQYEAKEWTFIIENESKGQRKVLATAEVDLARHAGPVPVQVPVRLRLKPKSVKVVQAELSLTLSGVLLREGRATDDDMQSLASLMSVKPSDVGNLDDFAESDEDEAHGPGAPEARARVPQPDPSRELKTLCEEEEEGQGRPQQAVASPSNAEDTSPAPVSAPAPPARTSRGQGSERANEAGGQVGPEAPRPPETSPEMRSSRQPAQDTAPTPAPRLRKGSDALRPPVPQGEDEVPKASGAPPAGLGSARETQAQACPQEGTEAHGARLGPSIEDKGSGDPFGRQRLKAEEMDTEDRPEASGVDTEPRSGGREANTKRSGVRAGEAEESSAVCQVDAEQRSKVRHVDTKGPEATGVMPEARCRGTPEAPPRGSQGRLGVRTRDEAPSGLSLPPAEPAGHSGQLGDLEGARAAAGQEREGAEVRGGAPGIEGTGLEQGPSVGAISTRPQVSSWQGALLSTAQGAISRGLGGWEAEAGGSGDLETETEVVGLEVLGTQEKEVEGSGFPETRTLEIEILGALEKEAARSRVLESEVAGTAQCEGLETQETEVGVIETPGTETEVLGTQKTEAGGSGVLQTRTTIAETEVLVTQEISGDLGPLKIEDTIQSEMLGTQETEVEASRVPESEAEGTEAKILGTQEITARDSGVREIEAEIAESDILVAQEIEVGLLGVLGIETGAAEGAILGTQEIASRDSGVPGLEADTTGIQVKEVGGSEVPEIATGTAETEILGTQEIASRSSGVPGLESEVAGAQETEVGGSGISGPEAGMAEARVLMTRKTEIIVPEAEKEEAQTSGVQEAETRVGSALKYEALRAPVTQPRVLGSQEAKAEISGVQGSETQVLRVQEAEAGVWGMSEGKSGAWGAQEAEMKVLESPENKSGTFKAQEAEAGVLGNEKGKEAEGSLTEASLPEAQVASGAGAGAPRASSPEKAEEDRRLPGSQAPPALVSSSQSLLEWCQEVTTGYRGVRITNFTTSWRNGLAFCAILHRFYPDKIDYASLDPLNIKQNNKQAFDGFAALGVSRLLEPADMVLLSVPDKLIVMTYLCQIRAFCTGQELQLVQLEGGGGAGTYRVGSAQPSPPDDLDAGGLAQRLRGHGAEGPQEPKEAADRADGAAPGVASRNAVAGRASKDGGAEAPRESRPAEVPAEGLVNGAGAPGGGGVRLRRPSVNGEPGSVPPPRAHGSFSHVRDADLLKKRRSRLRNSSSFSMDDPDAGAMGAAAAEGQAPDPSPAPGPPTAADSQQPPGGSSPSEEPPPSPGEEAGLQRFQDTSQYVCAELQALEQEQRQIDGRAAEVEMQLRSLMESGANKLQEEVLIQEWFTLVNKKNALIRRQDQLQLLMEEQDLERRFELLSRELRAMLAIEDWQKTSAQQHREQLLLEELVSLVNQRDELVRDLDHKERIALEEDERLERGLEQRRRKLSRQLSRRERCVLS

Tests used:
Experiment in all cases: log2 fold change, soluble protein after heating vs DMSO (PISA); higher = thermal stabilisation; K562 lysate, 10 uM; active = over 0.2 and 3.5 SD of the protein, either way, in both replicates (recomputed)
[1] = compound: NCC(=O)Nc1ccc(-n2nc(C(F)(F)F)cc2-c2ccc3c(ccc4ccccc43)c2)cc1
Method in brief: (§1)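 Soluble protein was defined as the supernatant remaining after 21,000xg for 90 min, following pooling of heated aliquots and adjustment to 0.5% NP-40 at 4°C. Before that, crude K562 extract at 1 mg/mL protein in PBS pH 7.4 with 1 mM MgCl2 was treated with 10 μM compound for 30 min and heated for 3 min across 48°C-58°C. Quantification used TMTpro 16plex LC-MS/MS with channel sums equalised, and values are log-two fold changes in thermal stability relative to solvent controls from duplicates.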

vorinostat = compound: O=C(CCCCCCC(=O)Nc1ccccc1)NO [vorinostat]
Method in brief: as §1

silmitasertib = compound: O=C(O)c1ccc2c(c1)nc(Nc1cccc(Cl)c1)c1ccncc12 [silmitasertib]
Method in brief: as §1

[2] = compound: O=C1NC(=O)C(c2cnc3ccccn23)=C1c1cn2c3c(cc(F)cc13)CN(C(=O)N1CCCCC1)CC2
Method in brief: as §1

entospletinib = compound: c1cn2cc(-c3ccc4cn[nH]c4c3)nc(Nc3ccc(N4CCOCC4)cc3)c2n1 [entospletinib]
Method in brief: as §1

Target | log2 fold change [1] | log2 fold change (vorinostat) | log2 fold change (silmitasertib) | log2 fold change [2] | log2 fold change (entospletinib)
EEF1A2 (UniProt Q05639) | inactive: 0.023 | inactive: -0.201 | inactive: -0.003 | inactive: 0.003 | inactive: 0.026
EEF2KMT (UniProt Q96G04) | inactive: -0.315 | inactive: -0.059 | inactive: -0.077 | inactive: 0.126 | inactive: 0.029
DUS3L (UniProt Q96G46) | inactive: 0.002 | inactive: -0.08 | inactive: 0.036 | inactive: -0.007 | inactive: 0.014
EEF2 (UniProt P13639) | inactive: 0.011 | inactive: 0.023 | inactive: 0.012 | inactive: 0.014 | inactive: -0.004
EHD4 (UniProt Q9H223) | inactive: 0.036 | inactive: -0.149 | inactive: 0.076 | inactive: 0.029 | inactive: -0.012
DPP8 (UniProt Q6V1X1) | inactive: -0.131 | inactive: -0.012 | inactive: 0.027 | inactive: -0.061 | inactive: 0.005
ECT2 (UniProt Q9H8V3) | inactive: 0.067 | inactive: -0.06 | inactive: 0.048 | inactive: -0.032 | inactive: -0.044
EIF1B (UniProt O60739) | inactive: 0.135 | inactive: 0.066 | inactive: 0.085 | inactive: 0.313 | inactive: -0.146
EDF1 (UniProt O60869) | inactive: 0.021 | inactive: 0.134 | inactive: -0.035 | inactive: 0.048 | inactive: 0.011
EEF1A1P5 (UniProt Q5VTE0) | inactive: 0.04 | active: -0.311 | inactive: -0.017 | inactive: 0.005 | inactive: 0.033
EDC4 (UniProt Q6P2E9) | inactive: 0.045 | active: -0.453 | inactive: 0.011 | inactive: 0.004 | inactive: 0.02
EAF1 (UniProt Q96JC9) | inactive: -0.082 | inactive: 0.121 | inactive: -0.086 | inactive: 0.044 | inactive: 0.029
DPH5 isoform 5 (UniProt Q9H2P9) | inactive: -0.046 | inactive: -0.06 | inactive: -0.015 | inactive: 0.077 | inactive: -0.011
EDRF1 (UniProt Q3B7T1) | inactive: 0.05 | inactive: -0.021 | inactive: -0.001 | inactive: -0.019 | inactive: -0.071
DYNC1I2 isoform 2 (UniProt Q13409) | inactive: 0.138 | inactive: 0.07 | inactive: 0.008 | inactive: 0.054 | inactive: 0.039
DRAP1 isoform 2 (UniProt Q14919) | inactive: 0.018 | inactive: 0.046 | inactive: -0.006 | inactive: -0.022 | inactive: 0.01
DUS4L (UniProt O95620) | inactive: -0.041 | inactive: 0.014 | inactive: 0.072 | inactive: 0.029 | inactive: -0.01
EBP (UniProt Q15125) | inactive: 0.134 | inactive: 0.1 | inactive: -0.033 | inactive: 0.097 | inactive: 0.013
EIF1AD (UniProt Q8N9N8) | inactive: -0.038 | inactive: 0.003 | inactive: -0.007 | inactive: -0.005 | inactive: -0.009
EEF1A1, A0A087WVQ9 | inactive: -0.025 | active: -0.541 | inactive: -0.002 | inactive: -0.022 | inactive: 0.015
EEFSEC (UniProt P57772) | inactive: -0.022 | active: -0.325 | inactive: 0.052 | inactive: -0.012 | inactive: -0.009
DRG2 (UniProt P55039) | inactive: 0.004 | inactive: -0.072 | inactive: 0.023 | inactive: 0.029 | inactive: 0.035
EHBP1L1 (UniProt Q8N3D4) | inactive: 0.024 | inactive: -0.09 | inactive: 0.059 | inactive: -0.011 | inactive: -0.018
EED, A0A5F9ZI63 | inactive: -0.022 | active: -0.227 | inactive: 0.043 | inactive: -0.018 | inactive: 0.009

A run of entries from further up, as a working copy:
Target | log2 fold change [1] | log2 fold change (vorinostat) | log2 fold change (silmitasertib) | log2 fold change [2] | log2 fold change (entospletinib)
EEF1A2 (UniProt Q05639) | inactive: 0.023 | inactive: -0.201 | inactive: -0.003 | inactive: 0.003 | inactive: 0.026
EEF2KMT (UniProt Q96G04) | inactive: -0.315 | inactive: -0.059 | inactive: -0.077 | inactive: 0.126 | inactive: 0.029
